Measured values published in patent publication US20030162221A1.
Results are given in words; binding and its absence hold for the method and conditions named. Binding seen in cells or lysates may run through a third protein. Some results given as binding are weak or reduced against the parent protein; the word gives no strength. Tags and fused reporters may be left off the sequences shown. One block for each binder: values may come before it.

Experiments:
[1] = molecular target: T1, Rad1 (Saccharomyces cerevisiae) (UniProt P06777); assay: anti-FLAG co-IP, LC-MS/MS
T1 sequence (looked up): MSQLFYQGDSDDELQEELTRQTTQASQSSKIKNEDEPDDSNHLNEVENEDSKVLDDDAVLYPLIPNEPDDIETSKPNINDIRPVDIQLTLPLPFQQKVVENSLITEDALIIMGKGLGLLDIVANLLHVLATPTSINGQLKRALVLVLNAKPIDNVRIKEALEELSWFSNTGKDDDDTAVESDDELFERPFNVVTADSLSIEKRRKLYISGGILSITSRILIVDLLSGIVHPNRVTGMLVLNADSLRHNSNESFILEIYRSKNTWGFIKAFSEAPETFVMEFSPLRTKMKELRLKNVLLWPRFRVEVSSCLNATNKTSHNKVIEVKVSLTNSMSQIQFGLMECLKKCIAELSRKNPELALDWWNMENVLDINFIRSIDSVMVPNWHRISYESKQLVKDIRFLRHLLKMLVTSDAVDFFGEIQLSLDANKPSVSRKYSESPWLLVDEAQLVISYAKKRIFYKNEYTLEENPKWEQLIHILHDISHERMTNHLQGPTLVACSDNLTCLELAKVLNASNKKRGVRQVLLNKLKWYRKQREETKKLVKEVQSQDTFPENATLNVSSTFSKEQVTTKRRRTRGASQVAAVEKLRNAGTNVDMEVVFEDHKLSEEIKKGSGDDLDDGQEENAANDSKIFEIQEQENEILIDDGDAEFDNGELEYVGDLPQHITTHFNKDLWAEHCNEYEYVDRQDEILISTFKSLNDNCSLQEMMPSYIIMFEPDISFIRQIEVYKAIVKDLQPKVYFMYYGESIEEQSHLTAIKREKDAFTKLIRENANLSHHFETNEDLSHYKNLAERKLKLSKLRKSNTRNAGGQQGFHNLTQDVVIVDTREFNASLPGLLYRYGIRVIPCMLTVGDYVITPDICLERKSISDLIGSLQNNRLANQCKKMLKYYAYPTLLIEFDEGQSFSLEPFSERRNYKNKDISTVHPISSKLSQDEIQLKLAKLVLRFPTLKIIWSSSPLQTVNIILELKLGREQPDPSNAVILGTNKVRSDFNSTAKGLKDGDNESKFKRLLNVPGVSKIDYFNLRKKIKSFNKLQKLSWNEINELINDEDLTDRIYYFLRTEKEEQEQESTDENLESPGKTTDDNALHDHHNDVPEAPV

[2] = molecular target: T2, Rad4 (Saccharomyces cerevisiae) (UniProt P14736); assay: anti-FLAG co-IP, LC-MS/MS
T2 sequence (looked up): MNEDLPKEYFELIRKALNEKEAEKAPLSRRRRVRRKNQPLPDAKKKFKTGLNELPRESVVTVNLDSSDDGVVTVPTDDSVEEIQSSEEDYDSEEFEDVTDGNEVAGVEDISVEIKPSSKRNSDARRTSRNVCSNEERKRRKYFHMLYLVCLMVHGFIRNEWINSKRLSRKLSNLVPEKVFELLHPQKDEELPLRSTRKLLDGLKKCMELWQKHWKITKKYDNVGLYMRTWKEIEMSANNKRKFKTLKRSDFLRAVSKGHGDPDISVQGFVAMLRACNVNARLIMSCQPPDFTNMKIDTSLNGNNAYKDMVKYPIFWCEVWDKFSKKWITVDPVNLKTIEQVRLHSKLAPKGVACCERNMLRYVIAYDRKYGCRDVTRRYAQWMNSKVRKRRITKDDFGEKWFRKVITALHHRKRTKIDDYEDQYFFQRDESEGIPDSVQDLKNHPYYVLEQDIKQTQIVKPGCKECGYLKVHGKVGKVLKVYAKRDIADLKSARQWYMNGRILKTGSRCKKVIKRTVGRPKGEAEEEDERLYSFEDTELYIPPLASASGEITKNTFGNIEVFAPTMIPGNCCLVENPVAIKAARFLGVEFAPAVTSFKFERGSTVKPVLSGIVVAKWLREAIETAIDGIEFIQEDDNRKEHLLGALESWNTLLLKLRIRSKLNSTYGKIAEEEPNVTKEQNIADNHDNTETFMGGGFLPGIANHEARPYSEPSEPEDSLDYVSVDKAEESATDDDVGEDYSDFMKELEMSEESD

[3] = molecular target: T1, Rad1 (Saccharomyces cerevisiae); assay: anti-FLAG co-IP, LC-MS/MS; pair by Table 2
[4] = molecular target: T2, Rad4 (Saccharomyces cerevisiae); assay: anti-FLAG co-IP, LC-MS/MS; bait Rad14 by Table 2
[5] = molecular target: T3, Rad7 (Saccharomyces cerevisiae) (UniProt P06779); assay: anti-FLAG co-IP, LC-MS/MS
T3 sequence (looked up): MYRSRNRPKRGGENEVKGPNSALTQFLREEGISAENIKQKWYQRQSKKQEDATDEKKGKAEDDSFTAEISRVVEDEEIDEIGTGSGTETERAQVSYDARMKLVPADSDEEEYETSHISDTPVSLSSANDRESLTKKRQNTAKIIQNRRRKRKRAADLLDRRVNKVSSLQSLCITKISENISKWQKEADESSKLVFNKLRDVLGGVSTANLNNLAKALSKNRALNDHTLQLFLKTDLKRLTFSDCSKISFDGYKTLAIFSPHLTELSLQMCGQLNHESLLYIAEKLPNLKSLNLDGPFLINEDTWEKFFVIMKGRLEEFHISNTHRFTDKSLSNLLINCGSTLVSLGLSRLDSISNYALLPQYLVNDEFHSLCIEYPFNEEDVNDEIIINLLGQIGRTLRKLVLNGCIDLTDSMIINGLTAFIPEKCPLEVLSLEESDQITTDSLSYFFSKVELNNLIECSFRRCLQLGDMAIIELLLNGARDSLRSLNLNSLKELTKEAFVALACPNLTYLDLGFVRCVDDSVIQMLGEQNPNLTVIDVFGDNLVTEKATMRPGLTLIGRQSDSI

[6] = molecular target: T3, Rad7 (Saccharomyces cerevisiae); assay: anti-FLAG co-IP, LC-MS/MS; pair by Table 2

binding [1]: binds
binding [2]: binds
binding [3]: binds
binding [4]: binds
B1: Rad14 (protein, Saccharomyces cerevisiae, UniProt P28519 1-371, looked up)
chain: MTPEQKAKLEANRKLAIERLRKRGILSSDQLNRIESRNEPLKTRPLAVTSGSNRDDNAAAAVHVPNHNGQPSALANTNTNTTSLYGSGVVDGSKRDASVLDKRPTDRIRPSIRKQDYIEYDFATMQNLNGGYINPKDKLPNSDFTDDQEFESEFGSKKQKTLQDWKKEQLERKMLYENAPPPEHISKAPKCIECHINIEMDPVLHDVFKLQVCKQCSKEHPEKYALLTKTECKEDYFLTDPELNDEDLFHRLEKPNPHSGTFARMQLFVRCEVEAFAFKKWGGEEGLDEEWQRREEGKAHRREKKYEKKIKEMRLKTRAQEYTNRLREKKHGKAHIHHFSDPVDGGIDEDGYQIQRRRCTDCGLETEEIDI

binding [5]: binds
binding [6]: binds
B2: Rad16 (protein, Saccharomyces cerevisiae, UniProt P31244 1-790, looked up)
chain: MQEGGFIRRRRTRSTKKSVNYNELSDDDTAVKNSKTLQLKGNSENVNDSQDEEYRDDATLVKSPDDDDKDFIIDLTGSDKERTATDENTHAIKNDNDEIIEIKEERDVSDDDEPLTKKRKTTARKKKKKTSTKKKSPKVTPYERNTLRLYEHHPELRNVFTDLKNAPPYVPQRSKQPDGMTIKLLPFQLEGLHWLISQEESIYAGGVLADEMGMGKTIQTIALLMNDLTKSPSLVVAPTVALMQWKNEIEQHTKGQLKIYIYHGASRTTDIKDLQGYDVVLTTYAVLESVFRKQNYGFRRKNGLFKQPSVLHNIDFYRVILDEAHNIKDRQSNTARAVNNLKTQKRWCLSGTPLQNRIGEMYSLIRFLNINPFTKYFCTKCDCASKDWKFTDRMHCDHCSHVIMQHTNFFNHFMLKNIQKFGVEGPGLESFNNIQTLLKNIMLRRTKVERADDLGLPPRIVTVRRDFFNEEEKDLYRSLYTDSKRKYNSFVEEGVVLNNYANIFTLITRMRQLADHPDLVLKRLNNFPGDDIGVVICQLCNDEAEEPIESKCHHKFCRLCIKEYVESFMENNNKLTCPVCHIGLSIDLSQPALEVDLDSFKKQSIVSRLNMSGKWQSSTKIEALVEELYKLRSNKRTIKSIVFSQFTSMLDLVEWRLKRAGFQTVKLQGSMSPTQRDETIKYFMNNIQCEVFLVSLKAGGVALNLCEASQVFILDPWWNPSVEWQSGDRVHRIGQYRPVKITRFCIEDSIEARIIELQEKKANMIHATINQDEAAISRLTPADLQFLFNN
